No constants are given. Whether binding was seen depends on the method and setting. In cells and extracts the contact can be indirect. These calls come from enrichment with a bait or labelling near it, and not all partners need be listed.
biological target: human glucocorticoid receptor alpha (GRα), expressed in S. pombe (human) (UniProt P04150); assay: affinity purification with mass spectrometry; anti-GR antibody on epoxy-activated magnetic beads; lysates of S. pombe expressing hGRα (empty vector as control) grown at 30 °C or 39 °C (heat shock 30 min); lysis buffer 250 mM NaCl, 20 mM Tris pH 7.5, 1% Triton X-100, 100 mM potassium acetate; 4 °C, 1 hour, 6 washes; SDS-PAGE and LC-MS/MS

Sequences of proteins named here, by UniProt entry; tags and fusion partners are left off. A change or cut given only in a name is not applied to a line headed by its entry.
UniProt P04150: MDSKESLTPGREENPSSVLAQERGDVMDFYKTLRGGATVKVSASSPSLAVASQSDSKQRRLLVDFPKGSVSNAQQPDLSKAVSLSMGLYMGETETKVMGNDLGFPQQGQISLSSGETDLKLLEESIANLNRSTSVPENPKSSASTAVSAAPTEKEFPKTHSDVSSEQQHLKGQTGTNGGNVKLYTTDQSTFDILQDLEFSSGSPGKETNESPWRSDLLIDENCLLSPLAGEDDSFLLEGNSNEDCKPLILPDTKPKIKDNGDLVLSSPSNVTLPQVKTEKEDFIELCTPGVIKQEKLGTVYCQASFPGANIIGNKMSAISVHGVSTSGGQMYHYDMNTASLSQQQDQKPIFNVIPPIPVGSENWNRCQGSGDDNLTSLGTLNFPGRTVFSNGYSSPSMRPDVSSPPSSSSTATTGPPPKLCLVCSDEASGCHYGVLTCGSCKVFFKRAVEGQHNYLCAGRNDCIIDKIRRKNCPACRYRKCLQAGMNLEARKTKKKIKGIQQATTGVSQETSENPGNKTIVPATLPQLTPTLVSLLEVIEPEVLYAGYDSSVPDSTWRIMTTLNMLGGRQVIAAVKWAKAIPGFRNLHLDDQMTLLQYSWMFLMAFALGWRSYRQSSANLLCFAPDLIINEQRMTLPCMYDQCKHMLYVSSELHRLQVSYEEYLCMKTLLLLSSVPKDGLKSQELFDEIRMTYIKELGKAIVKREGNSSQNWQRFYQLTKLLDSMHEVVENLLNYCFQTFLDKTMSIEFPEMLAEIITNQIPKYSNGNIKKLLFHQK
UniProt P36612: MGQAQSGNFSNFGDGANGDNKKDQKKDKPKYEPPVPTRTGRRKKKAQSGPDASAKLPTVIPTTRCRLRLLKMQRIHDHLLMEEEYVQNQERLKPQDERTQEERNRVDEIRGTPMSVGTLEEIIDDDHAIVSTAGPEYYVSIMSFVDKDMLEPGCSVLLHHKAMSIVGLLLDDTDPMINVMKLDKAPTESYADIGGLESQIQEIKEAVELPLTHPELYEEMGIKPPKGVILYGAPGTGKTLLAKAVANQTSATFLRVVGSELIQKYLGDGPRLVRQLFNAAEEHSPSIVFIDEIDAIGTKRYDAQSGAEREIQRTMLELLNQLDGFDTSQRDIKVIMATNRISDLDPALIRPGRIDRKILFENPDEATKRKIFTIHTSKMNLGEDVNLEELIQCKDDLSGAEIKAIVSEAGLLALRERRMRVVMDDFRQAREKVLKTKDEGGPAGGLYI
UniProt O74752: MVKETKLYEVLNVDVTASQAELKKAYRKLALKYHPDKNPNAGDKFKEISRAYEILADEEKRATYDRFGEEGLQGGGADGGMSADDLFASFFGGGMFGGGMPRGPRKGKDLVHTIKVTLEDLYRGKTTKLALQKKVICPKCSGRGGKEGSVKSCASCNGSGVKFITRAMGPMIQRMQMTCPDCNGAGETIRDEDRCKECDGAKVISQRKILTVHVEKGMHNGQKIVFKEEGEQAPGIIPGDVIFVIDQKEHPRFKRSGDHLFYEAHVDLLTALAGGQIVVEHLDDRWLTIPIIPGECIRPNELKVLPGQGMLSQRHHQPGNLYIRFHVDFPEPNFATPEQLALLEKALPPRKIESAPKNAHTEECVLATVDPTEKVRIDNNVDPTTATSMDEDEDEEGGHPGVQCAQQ
UniProt O94657: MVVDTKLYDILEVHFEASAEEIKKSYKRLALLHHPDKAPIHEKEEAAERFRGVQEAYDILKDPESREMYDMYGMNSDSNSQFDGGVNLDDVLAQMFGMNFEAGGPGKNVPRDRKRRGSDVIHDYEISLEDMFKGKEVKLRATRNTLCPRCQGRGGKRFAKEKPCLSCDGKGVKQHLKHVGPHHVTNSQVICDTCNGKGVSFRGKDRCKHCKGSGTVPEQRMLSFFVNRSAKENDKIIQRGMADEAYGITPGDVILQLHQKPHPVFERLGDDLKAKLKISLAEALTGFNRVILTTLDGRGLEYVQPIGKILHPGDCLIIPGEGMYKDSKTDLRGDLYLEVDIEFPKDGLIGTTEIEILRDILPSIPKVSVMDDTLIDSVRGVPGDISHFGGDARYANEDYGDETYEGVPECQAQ
UniProt Q10107: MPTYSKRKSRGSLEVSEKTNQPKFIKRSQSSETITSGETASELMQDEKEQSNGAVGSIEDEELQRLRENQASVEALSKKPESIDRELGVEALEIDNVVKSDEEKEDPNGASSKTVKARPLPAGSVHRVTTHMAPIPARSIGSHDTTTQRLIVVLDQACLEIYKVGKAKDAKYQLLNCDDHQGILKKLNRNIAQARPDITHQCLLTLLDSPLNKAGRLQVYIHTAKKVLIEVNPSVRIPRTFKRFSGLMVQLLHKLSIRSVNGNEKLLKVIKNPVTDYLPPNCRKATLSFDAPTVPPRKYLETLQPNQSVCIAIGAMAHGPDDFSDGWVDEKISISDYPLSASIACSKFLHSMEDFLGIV
UniProt P47943: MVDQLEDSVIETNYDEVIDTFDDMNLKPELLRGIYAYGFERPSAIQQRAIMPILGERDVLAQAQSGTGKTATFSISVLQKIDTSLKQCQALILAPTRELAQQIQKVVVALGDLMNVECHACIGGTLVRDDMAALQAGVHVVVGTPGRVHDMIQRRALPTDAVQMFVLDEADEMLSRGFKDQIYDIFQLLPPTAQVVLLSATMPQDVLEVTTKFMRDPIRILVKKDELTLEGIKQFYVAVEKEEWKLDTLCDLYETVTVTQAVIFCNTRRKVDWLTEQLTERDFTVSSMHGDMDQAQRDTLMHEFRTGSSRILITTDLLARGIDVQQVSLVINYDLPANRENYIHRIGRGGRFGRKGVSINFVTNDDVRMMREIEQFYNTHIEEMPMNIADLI
UniProt O94603: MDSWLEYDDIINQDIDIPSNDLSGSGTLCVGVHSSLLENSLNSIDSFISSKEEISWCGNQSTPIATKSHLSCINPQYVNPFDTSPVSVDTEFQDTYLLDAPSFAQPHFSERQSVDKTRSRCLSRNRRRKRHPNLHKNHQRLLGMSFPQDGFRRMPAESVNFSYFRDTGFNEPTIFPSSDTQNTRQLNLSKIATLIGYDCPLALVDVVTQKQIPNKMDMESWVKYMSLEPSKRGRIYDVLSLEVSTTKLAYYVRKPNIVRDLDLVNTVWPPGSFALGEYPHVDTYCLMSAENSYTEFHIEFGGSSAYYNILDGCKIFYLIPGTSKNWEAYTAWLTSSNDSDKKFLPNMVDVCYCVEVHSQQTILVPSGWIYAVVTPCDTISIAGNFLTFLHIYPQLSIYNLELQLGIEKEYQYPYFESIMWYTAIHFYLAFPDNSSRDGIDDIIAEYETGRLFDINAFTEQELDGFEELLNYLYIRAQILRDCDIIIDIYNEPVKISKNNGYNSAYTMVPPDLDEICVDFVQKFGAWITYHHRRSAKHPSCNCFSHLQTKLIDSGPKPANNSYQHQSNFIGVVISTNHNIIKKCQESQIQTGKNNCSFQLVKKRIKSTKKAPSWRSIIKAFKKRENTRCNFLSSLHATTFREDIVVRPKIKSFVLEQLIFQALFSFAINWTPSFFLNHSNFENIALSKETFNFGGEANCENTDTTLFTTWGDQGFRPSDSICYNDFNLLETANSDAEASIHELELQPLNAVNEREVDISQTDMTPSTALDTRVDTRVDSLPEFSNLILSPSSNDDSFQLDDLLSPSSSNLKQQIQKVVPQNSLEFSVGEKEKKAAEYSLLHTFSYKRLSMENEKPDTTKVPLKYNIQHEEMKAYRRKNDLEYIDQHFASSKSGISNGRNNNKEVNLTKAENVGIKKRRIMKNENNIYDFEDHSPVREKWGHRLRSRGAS
UniProt P40235: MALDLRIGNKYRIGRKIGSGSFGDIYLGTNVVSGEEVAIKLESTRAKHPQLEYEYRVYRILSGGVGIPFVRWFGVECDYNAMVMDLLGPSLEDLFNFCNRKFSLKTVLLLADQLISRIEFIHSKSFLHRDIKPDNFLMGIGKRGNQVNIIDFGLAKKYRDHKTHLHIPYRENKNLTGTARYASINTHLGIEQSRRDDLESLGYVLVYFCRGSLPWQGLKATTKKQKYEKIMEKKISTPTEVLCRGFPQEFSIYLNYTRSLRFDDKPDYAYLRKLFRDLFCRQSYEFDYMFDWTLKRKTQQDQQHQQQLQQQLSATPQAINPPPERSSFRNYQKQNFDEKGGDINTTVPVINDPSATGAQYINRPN
UniProt O42945: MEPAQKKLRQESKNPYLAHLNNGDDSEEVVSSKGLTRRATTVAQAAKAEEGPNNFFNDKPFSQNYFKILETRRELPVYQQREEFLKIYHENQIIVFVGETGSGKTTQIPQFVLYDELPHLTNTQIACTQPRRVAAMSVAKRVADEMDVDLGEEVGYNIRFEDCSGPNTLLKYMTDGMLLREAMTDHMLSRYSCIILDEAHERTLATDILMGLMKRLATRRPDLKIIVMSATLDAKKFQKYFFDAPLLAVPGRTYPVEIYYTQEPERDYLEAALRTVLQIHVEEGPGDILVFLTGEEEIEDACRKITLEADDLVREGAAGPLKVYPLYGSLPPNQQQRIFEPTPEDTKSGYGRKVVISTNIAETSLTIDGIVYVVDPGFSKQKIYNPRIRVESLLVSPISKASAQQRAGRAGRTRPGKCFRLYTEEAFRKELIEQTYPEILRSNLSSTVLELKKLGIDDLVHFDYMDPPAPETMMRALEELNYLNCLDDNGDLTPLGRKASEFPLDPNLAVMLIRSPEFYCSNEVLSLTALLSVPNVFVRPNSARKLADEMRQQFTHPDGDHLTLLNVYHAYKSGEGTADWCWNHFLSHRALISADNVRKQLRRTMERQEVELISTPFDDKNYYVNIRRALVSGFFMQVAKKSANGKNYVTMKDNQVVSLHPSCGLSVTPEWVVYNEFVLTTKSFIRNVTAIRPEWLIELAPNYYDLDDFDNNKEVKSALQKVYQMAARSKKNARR
UniProt P42656: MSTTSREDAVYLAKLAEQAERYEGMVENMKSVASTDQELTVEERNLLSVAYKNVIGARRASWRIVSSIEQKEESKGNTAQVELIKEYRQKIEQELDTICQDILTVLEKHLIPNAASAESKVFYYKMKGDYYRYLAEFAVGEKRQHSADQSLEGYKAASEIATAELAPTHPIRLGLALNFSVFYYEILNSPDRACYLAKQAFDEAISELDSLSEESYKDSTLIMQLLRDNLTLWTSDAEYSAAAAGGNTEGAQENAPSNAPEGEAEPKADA
UniProt P42657: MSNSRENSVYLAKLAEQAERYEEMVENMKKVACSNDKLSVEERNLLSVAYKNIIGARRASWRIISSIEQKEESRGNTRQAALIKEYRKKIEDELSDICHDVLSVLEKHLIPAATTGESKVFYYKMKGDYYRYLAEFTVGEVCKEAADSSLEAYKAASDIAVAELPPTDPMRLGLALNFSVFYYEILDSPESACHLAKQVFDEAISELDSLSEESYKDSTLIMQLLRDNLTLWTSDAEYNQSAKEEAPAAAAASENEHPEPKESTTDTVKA
UniProt P0CT75: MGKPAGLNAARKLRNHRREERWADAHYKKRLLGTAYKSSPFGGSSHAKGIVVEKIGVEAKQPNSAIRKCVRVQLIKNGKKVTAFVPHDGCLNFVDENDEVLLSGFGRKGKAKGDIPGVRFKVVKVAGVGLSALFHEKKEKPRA

Row | Substance | binding
1 | 19 S proteasome regulatory subunit Rpt2 (from UniProt P36612 1-448) | binds
2 | AAA family ATPase involved in ubiquitin-mediated protein degradation Cdc48 (from UniProt Q9P3A7 1-809) | binds
3 | DNAJ domain protein Mas5 chaperone (from UniProt O74752 1-407) | binds
4 | DNAJ protein Xdj1 (from UniProt O94657) | binds
5 | Mra1 (from UniProt Q10107 1-359) | binds
6 | eIF4A (from UniProt P47943 1-392) | binds
7 | epe1 (from UniProt O94603 1-948) | binds
8 | fas1 (from UniProt Q9UUG0 1-2073) | binds
9 | hhp1 (from UniProt P40235 1-365) | binds
10 | prp43 (from UniProt O42945 1-735) | binds
11 | rad24 (from UniProt P42656 1-270) | binds
12 | rad25 (from UniProt P42657 1-270) | binds
13 | rps23 (from UniProt P0CT75 1-143) | binds
